Reference: PubChem BioAssay AID1053208 (Peter MacCallum Cancer Centre, 2014)
Here is an unselected part of about 17,000 reagents tested. 788 of them (4.7%) count as active. 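Calls rest on z-score classes alone; an extra cut-off of viability at most 70% of control was not applied to them.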 Further read-outs or replicates are left out here. Reagent sequences are not shown.

- Test: 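Find knock-downs that sensitise mouse osteosarcoma cells to doxorubicin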 (primary screen)
- System: mouse osteosarcoma cells, early-passage culture from an engineered mouse model of fibroblastic bone tumour
- Reagent: siRNA pool against mouse genes, 40 nM
- Duration: about 120 h (48 h before drug, then 72 h with drug)
- Treatment: doxorubicin 100 nM for 72 h, roughly 30-40% inhibitory dose
- Detection: 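Viability read as ATP luminescence after 72 h of 100 nM doxorubicin or none, duplicate wells averaged, scaled to non-targeting siRNA, then expressed as robust z-scores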
- Scale: viability z-score with doxorubicin: higher = more viable cells under doxorubicin; viability z-score without drug: higher = more viable cells with knock-down alone
- Active means: 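Called active if knock-down leaves viability unchanged without drug (z within -2 to 2) but lowers it with doxorubicin (z at or under -2)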

Against Cfap263, the entry reads combined z-score class high cell count without drug only; viability z-score with doxorubicin 1.35; viability z-score without drug 5.23; inactive. Against Trmt5 the deposit lists combined z-score class no change with or without drug; viability z-score with doxorubicin 0.45; viability z-score without drug 0.51; inactive. Silencing of Slc22a21 gave: combined z-score class no change with or without drug; viability z-score with doxorubicin 0.67; viability z-score without drug -0.34; inactive. With knock-down of Fshr, the record shows combined z-score class no change with or without drug; viability z-score with doxorubicin -0.45; viability z-score without drug 1.18; inactive. Against Hapln4, the entry reads combined z-score class no change with or without drug; viability z-score with doxorubicin 1.24; viability z-score without drug 0; inactive. Or5m10 gave combined z-score class no change with or without drug; viability z-score with doxorubicin 0.67; viability z-score without drug 0.34; inactive.

Silencing of Zfp128 came out at: combined z-score class no change with or without drug; viability z-score with doxorubicin -1.8; viability z-score without drug -0.51; inactive. Sele scored combined z-score class no change with or without drug; viability z-score with doxorubicin -0.11; viability z-score without drug 0.84; inactive. Against Vps28, the entry reads combined z-score class low cell count with doxorubicin only; viability z-score with doxorubicin -5.28; viability z-score without drug -0.34; active. Knock-down of Kif18b resulted in: combined z-score class no change with or without drug; viability z-score with doxorubicin -0.22; viability z-score without drug -0.51; inactive. After knock-down of Umodl1, the record shows combined z-score class no change with or without drug; viability z-score with doxorubicin 0.45; viability z-score without drug 0.51; inactive. Sdr42e1 gave combined z-score class no change with or without drug; viability z-score with doxorubicin -1.12; viability z-score without drug 0.84; inactive.

With knock-down of Samd12 the results were combined z-score class no change with or without drug; viability z-score with doxorubicin -0.45; viability z-score without drug -0.17; inactive.

Look-ups from the list.
Entry of Sdr42e1 under “call”: inactive
Result for Kif18b under “call”: inactive

Additional records follow:
Against Hoxb3, the entry reads combined z-score class no change with or without drug; viability z-score with doxorubicin -0.9; viability z-score without drug -1.18; inactive. Silencing of Suv39h1 came out at: combined z-score class no change with or without drug; viability z-score with doxorubicin 0; viability z-score without drug 0.84; inactive. Adh1 showed combined z-score class high cell count without drug only; viability z-score with doxorubicin 0.79; viability z-score without drug 2.53; inactive. With knock-down of Kctd8 the results were combined z-score class low cell count with and without drug; viability z-score with doxorubicin -2.25; viability z-score without drug -2.53; inactive. Timp3 showed combined z-score class no change with or without drug; viability z-score with doxorubicin 1.01; viability z-score without drug 0.84; inactive. For Timp4 the deposit lists combined z-score class no change with or without drug; viability z-score with doxorubicin 0.45; viability z-score without drug 0.84; inactive.

With knock-down of Atp6v1a, the record shows combined z-score class no change with or without drug; viability z-score with doxorubicin 0.45; viability z-score without drug 0; inactive. Rcc2 showed combined z-score class no change with or without drug; viability z-score with doxorubicin -0.22; viability z-score without drug -0.67; inactive. For Rpl14, the entry reads combined z-score class low cell count with and without drug; viability z-score with doxorubicin -6.52; viability z-score without drug -5.9; inactive. Foxk2 scored combined z-score class no change with or without drug; viability z-score with doxorubicin -0.45; viability z-score without drug 0; inactive. Silencing of Dlg3 resulted in: combined z-score class high cell count without drug only; viability z-score with doxorubicin 1.12; viability z-score without drug 3.37; inactive. After knock-down of Etf1, the record shows combined z-score class low cell count with and without drug; viability z-score with doxorubicin -4.72; viability z-score without drug -4.55; inactive.

After knock-down of Agpat5, the screen gave combined z-score class no change with or without drug; viability z-score with doxorubicin -1.12; viability z-score without drug -0.17; inactive. Pym1 showed combined z-score class no change with or without drug; viability z-score with doxorubicin 1.35; viability z-score without drug 0.51; inactive. For Prss43 the deposit lists combined z-score class no change with or without drug; viability z-score with doxorubicin -0.45; viability z-score without drug -0.51; inactive.
